Measured values from the supplement of paper PMC10849652.
This is one part of the list. Residues, ends and D or L forms follow the SMILES beside them. *: point of attachment. Cbz = O=C(OCc1ccccc1)*

Amino acid sequences for entries named in this document (tags omitted). A change or cut given only in a name is not applied to a line headed by its entry.
UniProt Q9NZR1: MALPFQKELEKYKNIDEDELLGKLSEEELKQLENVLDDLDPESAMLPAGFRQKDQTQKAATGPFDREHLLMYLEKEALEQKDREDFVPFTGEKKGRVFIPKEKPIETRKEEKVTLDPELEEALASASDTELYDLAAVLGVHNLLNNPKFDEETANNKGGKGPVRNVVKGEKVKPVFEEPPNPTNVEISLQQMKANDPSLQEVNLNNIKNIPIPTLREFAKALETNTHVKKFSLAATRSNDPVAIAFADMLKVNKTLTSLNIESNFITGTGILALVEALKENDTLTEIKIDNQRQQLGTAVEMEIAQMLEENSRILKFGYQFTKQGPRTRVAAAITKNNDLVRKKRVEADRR
UniProt Q9BRN9: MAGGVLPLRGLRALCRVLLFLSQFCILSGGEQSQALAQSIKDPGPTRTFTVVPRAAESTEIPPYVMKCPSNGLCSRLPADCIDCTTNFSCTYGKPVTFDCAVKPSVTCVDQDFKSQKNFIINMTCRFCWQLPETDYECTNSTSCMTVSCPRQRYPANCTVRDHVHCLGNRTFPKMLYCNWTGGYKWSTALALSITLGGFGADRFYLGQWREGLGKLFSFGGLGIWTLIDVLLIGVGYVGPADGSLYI
UniProt Q86WV6: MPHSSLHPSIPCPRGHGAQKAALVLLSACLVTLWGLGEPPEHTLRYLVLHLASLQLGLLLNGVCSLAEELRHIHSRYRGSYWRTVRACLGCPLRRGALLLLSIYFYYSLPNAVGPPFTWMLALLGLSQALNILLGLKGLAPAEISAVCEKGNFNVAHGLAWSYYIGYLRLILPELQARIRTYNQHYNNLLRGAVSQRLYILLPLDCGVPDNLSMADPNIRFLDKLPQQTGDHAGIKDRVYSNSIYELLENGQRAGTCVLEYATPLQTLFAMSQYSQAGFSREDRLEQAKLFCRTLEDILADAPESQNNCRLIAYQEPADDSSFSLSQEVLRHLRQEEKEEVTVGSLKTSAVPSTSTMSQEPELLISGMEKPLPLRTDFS
UniProt Q13445: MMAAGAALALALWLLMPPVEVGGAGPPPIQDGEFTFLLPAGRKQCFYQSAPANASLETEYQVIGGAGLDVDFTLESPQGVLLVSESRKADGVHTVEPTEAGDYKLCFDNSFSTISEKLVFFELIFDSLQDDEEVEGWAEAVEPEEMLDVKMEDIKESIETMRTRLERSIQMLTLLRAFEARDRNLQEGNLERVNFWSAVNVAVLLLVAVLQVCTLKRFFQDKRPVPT
UniProt O95379: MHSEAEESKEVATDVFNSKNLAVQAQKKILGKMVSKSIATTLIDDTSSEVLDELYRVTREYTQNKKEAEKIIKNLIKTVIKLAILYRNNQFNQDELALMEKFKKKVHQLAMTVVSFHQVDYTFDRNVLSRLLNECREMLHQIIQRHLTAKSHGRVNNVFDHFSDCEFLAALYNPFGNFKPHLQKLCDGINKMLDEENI
UniProt P42167: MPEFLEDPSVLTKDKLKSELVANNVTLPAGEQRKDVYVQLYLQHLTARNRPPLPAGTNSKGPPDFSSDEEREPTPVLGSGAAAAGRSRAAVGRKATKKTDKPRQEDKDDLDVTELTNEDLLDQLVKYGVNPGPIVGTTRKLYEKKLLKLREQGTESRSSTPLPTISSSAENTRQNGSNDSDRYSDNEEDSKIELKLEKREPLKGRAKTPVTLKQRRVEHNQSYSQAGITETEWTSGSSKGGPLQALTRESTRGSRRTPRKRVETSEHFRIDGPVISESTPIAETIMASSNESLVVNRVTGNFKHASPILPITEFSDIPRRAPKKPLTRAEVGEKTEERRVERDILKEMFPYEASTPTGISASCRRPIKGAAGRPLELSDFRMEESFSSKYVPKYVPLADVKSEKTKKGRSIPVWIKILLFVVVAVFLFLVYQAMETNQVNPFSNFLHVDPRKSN
UniProt Q9NVH6: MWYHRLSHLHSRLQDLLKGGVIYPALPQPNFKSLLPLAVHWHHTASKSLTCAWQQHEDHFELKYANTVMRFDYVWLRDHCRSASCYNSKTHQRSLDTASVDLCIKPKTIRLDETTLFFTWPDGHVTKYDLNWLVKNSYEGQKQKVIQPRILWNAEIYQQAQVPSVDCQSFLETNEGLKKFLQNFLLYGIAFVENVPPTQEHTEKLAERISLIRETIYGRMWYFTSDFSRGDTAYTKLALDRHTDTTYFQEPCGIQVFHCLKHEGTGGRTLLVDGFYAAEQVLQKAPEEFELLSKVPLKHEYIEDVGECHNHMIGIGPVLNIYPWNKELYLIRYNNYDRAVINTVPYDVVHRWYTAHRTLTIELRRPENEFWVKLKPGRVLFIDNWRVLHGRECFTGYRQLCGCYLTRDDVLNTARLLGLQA
UniProt Q9NQ34: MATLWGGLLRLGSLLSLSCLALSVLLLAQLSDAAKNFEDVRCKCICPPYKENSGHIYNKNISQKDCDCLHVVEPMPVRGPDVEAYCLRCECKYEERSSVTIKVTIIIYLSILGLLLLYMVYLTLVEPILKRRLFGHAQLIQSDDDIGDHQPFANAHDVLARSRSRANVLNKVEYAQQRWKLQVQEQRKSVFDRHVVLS
UniProt Q96B77: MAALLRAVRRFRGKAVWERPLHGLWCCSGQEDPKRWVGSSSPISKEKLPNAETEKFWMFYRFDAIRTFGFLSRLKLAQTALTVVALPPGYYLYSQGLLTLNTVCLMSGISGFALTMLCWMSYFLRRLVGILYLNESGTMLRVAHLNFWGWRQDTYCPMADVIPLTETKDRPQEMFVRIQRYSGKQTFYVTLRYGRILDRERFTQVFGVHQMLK
UniProt Q8IUX1: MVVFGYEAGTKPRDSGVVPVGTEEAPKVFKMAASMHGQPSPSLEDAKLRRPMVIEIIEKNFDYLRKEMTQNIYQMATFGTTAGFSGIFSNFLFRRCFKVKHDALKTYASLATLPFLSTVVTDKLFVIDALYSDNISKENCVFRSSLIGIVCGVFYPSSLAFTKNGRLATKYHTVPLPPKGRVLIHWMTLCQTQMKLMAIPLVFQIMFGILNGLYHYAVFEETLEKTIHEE
UniProt Q9HD45: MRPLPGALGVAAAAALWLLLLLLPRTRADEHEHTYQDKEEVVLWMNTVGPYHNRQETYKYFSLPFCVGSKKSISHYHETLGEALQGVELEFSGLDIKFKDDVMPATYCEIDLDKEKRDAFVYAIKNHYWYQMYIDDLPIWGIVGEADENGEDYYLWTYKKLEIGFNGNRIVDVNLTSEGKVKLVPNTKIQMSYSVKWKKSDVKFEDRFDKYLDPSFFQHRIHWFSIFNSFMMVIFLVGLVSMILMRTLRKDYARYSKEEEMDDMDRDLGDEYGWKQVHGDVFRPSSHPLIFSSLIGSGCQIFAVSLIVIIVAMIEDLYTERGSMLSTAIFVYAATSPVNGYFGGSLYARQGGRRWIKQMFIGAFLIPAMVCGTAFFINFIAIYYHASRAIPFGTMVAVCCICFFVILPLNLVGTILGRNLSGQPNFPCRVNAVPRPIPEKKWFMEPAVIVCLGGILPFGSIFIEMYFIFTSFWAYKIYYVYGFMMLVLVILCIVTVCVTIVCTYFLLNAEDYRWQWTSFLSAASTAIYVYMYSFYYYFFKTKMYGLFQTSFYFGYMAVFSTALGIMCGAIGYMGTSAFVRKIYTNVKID
UniProt Q9Y320, whole entry, looked up: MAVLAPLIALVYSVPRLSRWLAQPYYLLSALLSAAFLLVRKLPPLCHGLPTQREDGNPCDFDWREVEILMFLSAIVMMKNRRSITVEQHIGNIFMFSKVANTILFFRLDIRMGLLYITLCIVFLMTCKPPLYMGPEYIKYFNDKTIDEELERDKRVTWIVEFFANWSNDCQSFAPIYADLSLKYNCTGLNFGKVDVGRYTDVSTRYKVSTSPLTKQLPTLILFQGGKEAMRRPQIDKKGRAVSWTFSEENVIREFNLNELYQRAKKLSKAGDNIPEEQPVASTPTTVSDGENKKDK
UniProt Q13829: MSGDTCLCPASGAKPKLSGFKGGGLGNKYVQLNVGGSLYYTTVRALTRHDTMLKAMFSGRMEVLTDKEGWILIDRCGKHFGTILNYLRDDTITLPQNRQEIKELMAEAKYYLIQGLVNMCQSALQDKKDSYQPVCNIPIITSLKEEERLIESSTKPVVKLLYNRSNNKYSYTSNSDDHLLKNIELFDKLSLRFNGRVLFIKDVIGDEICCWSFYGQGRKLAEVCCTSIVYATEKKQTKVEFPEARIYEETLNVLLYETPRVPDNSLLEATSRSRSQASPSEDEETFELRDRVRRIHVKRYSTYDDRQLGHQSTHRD
UniProt Q9NVV0: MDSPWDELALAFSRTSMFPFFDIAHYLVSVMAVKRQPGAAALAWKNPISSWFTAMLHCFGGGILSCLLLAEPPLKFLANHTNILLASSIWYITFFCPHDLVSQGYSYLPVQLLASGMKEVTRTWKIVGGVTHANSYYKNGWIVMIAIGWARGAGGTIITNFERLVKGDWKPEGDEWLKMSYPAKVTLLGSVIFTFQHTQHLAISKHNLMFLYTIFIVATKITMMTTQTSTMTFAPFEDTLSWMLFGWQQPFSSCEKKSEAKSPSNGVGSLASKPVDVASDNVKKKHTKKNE
UniProt Q86UE8, whole entry, looked up: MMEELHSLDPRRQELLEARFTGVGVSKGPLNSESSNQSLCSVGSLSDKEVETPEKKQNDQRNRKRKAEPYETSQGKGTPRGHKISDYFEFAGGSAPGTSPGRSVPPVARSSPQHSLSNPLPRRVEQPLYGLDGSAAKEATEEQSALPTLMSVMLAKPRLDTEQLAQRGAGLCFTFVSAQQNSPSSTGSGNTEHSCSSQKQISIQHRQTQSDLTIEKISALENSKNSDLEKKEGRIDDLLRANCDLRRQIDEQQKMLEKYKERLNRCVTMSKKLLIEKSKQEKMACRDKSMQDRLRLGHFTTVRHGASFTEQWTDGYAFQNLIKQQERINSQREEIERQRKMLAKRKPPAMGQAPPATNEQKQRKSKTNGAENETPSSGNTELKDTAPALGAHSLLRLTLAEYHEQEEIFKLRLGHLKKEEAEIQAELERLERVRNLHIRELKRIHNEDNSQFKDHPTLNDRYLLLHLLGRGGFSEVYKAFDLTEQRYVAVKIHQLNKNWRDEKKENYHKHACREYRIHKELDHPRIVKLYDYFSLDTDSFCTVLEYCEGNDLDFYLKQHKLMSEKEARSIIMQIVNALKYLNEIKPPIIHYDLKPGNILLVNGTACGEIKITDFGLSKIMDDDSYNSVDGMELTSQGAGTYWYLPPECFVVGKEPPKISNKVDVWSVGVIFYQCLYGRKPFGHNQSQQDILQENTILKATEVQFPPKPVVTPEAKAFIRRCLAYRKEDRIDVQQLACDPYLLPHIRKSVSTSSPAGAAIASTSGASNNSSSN
UniProt O14763, whole entry, looked up: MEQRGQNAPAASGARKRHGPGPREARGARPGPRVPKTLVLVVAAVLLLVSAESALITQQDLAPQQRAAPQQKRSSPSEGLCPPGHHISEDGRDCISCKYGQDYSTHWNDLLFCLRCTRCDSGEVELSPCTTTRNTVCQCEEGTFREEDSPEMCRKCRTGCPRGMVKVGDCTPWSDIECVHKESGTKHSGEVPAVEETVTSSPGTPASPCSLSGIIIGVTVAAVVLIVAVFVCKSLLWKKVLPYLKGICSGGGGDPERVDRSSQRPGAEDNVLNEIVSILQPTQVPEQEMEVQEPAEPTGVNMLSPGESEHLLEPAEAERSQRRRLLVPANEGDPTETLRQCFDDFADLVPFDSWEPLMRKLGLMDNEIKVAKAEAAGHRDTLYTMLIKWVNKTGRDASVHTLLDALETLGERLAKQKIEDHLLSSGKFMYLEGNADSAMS

Key:
Assay in all cases: log2 fold change, soluble protein after heating vs DMSO (PISA); higher = thermal stabilisation; K562 cells, 10 uM, 30 min; active = over 0.2 and 3.5 SD of the protein, either way, in both replicates (recomputed)
[1] = compound: C1COCCN1CCN2C3=CC=CC=C3N=C2NC(=O)C4=CC(=CC=C4)[N+](=O)[O-] [IRAK-1-4 Inhibitor I]
Outline: (§1)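 For each measurement, 10 μM compound was applied for 30 min to K562 cells at 2×10^6 cells/mL. Aliquots were heated for 3 min across 48°C-58°C, pooled, and extracted in PBS with 0.5% NP-40 at 4°C; the supernatant after 21,000xg for 90 min was soluble protein. This was quantified by TMTpro 16plex LC-MS/MS with channel sums equalised, and thermal stability was reported relative to control samples from duplicates, on a log2 fold-change scale.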

[2] = compound: C=CC(=O)N1CCC[C@@H](n2nc(-c3ccc(Oc4ccccc4)cc3)c3c(N)ncnc32)C1 [ibrutinib]
Outline: as §1

[3] = compound: CC(=O)c1cnc2ccc(-c3cc(Cl)c(O)c(Cl)c3)nc2c1N[C@H]1CC[C@H](CN(C)C)CC1
Outline: as §1

[4] = compound: CC(C)(C)Cn1c(N)nc2ccc(-c3[nH]c(C(C)(C)C)nc3-c3ccc(F)cc3)nc21 [ralimetinib]
Outline: as §1

[5] = compound: CC(C)(O)CC(=O)NCCn1ccc2ncnc(Nc3ccc(Oc4cccc(C(F)(F)F)c4)c(Cl)c3)c21
Outline: as §1

[6] = compound: CC(C)C1=C2N=C(C=C(N2N=C1)NCC3=CC=CC=C3)NCCCCCCN
Outline: as §1

[7] = compound: CC(C)C[C@@H](C=O)NC(=O)[C@H](CC(C)C)NC(=O)[C@H](CC(C)C)NC(=O)OCc1ccccc1
Outline: as §1

[8] = compound: CC(C)N(C[C@H]1O[C@@H](n2cnc3c(N)ncnc32)[C@H](O)[C@@H]1O)[C@H]1C[C@@H](CCc2nc3cc(C(C)(C)C)ccc3[nH]2)C1 [pinometostat]
Outline: as §1

[9] = compound: CC1=C(C(CC(=O)N1)C2=CC=C(C=C2)C(F)(F)F)C(=O)NC3=C(C=C4C(=C3)C=NN4)F
Outline: as §1

[10] = compound: CC1=C(C2=C(C=C1)C(=O)C3=CC=CC=C3N2CCCN)C
Outline: as §1

[11] = compound: CC1=C(C=C(C=C1)NC(=O)C2=CC(=CC=C2)C(C)(C)C#N)NC3=CC4=C(C=C3)N=CN(C4=O)C
Outline: as §1

[12] = compound: CC1=C(C=C(C=C1)NC(=O)C2=CC(=CC=C2)N(C)C)NC(=O)C3=CC=C(C=C3)O
Outline: as §1

[13] = compound: CC1=CC=C(C=C1)SC2=C3C=C(SC3=CN=C2)C(=O)N
Outline: as §1

[14] = compound: CC1=NC(=CC=C1)C2=C(N=C(N2)C(C)(C)C)C3=CC4=NC=CN=C4C=C3
Outline: as §1

[15] = compound: CCCCN(Cc1ccc(C(=O)NO)cc1)C(=O)Nc1ccccc1 [Nexturastat A]
Outline: as §1

[16] = compound: CCCS(=O)(=O)Nc1ccc(F)c(C(=O)c2c[nH]c3ncc(-c4ccc(Cl)cc4)cc23)c1F [vemurafenib]
Outline: as §1

[17] = compound: CCCS(=O)(=O)Nc1ccc(F)c(C(=O)c2c[nH]c3ncc(Cl)cc23)c1F
Outline: as §1

[18] = compound: CCCc1cc(C)[nH]c(=O)c1CNC(=O)c1cc(-c2ccnc(N3CCN(C)CC3)c2)cc2c1cnn2C(C)C
Outline: as §1

[19] = compound: CCN(CC)Cc1ccc2cc(COC(=O)Nc3ccc(C(=O)NO)cc3)ccc2c1 [givinostat]
Outline: as §1

[20] = compound: CCN(CCCOc1ccc2c(Nc3cc(CC(=O)Nc4cccc(F)c4)[nH]n3)ncnc2c1)CCOP(=O)(O)O [barasertib]
Outline: as §1

Measured: log2 fold change

TMOD2 (UniProt Q9NZR1)
inactive: [1] -0.03 | [2] 0.06 | [3] 0.061 | [4] -0.072 | [5] -0.048 | [6] 0.026 | [7] -0.441 | [8] -0.073 | [9] -0.097 | [10] 0.133 | [11] -0.067 | [12] -0.344 | [13] 0.092 | [14] 0.074 | [15] -0.097 | [16] 0.258 | [17] -0.006 | [18] 0.031 | [19] -0.198 | [20] 0.037

TM2D3 (UniProt Q9BRN9)
inactive: [1] -0.139 | [2] 0.075 | [3] -0.097 | [4] -0.127 | [5] -0.03 | [6] -0.062 | [7] 0.119 | [8] 0.008 | [9] 0.023 | [10] -0.12 | [11] -0.04 | [12] -0.121 | [13] 0.035 | [14] -0.081 | [15] 0.058 | [16] 0.096 | [17] 0.006 | [18] -0.353 | [19] 0.006 | [20] -0.033

TMEM173 (UniProt Q86WV6)
inactive: [1] 0.018 | [2] -0.105 | [3] 0.009 | [4] 0.067 | [5] -0.047 | [6] -0.006 | [7] 0.005 | [8] 0.012 | [10] 0.088 | [11] -0.037 | [12] -0.01 | [13] -0.043 | [14] -0.008 | [15] -0.212 | [16] 0.056 | [17] -0.043 | [18] -0.008 | [19] -0.076 | [20] 0.055

TMED1 (UniProt Q13445)
inactive: [1] -0.008 | [2] -0.005 | [3] 0.077 | [4] -0.217 | [5] -0.055 | [6] 0.024 | [7] 0.064 | [8] -0.053 | [9] -0.035 | [10] 0.005 | [11] -0.029 | [12] 0.014 | [13] 0.057 | [14] 0.09 | [15] -0.044 | [16] 0.042 | [17] 0.01 | [18] 0.083 | [19] 0.009 | [20] 0.063

TNFAIP8 isoform 4 (UniProt O95379)
inactive: [1] -0.018 | [2] -0.036 | [3] -0.036 | [4] 0 | [5] -0.037 | [6] -0.075 | [7] -0.047 | [8] -0.065 | [10] -0.037 | [11] -0.019 | [12] -0.013 | [13] -0.021 | [14] 0.051 | [15] -0.102 | [16] 0.014 | [17] -0.102 | [18] -0.052 | [19] 0.003 | [20] 0.065

TMPO (UniProt P42167)
inactive: [1] 0.004 | [2] -0.009 | [3] 0.091 | [4] -0.024 | [5] -0.022 | [6] 0.015 | [7] -0.007 | [8] 0.041 | [9] 0.099 | [10] -0.02 | [11] 0.006 | [12] 0.023 | [13] -0.013 | [14] 0.01 | [15] -0.071 | [16] 0.007 | [17] -0.01 | [18] -0.02 | [19] -0.007 | [20] -0.005

TMLHE isoform 8 (UniProt Q9NVH6)
inactive: [1] 0.02 | [2] -0.005 | [3] -0.047 | [4] -0.028 | [5] 0.002 | [6] 0.02 | [7] 0.004 | [8] -0.022 | [9] -0.119 | [10] 0.199 | [11] -0.079 | [12] 0.059 | [13] 0 | [14] -0.01 | [15] 0.058 | [16] -0.014 | [17] -0.114 | [18] -0.029 | [19] -0.061 | [20] 0.042

TMEM9B (UniProt Q9NQ34)
active: [4] 0.324
inactive: [1] -0.019 | [2] 0.038 | [3] -0.083 | [5] 0.014 | [6] -0.082 | [7] -0.006 | [8] 0.015 | [10] 0.038 | [11] -0.068 | [12] 0.042 | [13] 0.105 | [14] 0.01 | [15] -0.055 | [16] 0.013 | [17] 0.064 | [18] 0.006 | [19] -0.023 | [20] -0.015

TMEM186 (UniProt Q96B77)
inactive: [1] -0.013 | [2] 0.074 | [3] 0.03 | [4] -0.04 | [5] 0.04 | [6] 0.009 | [7] 0.06 | [8] -0.011 | [9] 0.077 | [10] 0.008 | [11] 0.021 | [12] -0.02 | [13] -0.087 | [14] -0.014 | [15] 0.049 | [16] -0.007 | [17] -0.026 | [18] -0.268 | [19] -0.009 | [20] -0.038

2 neighbouring entries from above:
TMPO (UniProt P42167)
inactive: [1] 0.004 | [2] -0.009 | [3] 0.091 | [4] -0.024 | [5] -0.022 | [6] 0.015 | [7] -0.007 | [8] 0.041 | [9] 0.099 | [10] -0.02 | [11] 0.006 | [12] 0.023 | [13] -0.013 | [14] 0.01 | [15] -0.071 | [16] 0.007 | [17] -0.01 | [18] -0.02 | [19] -0.007 | [20] -0.005

TMLHE isoform 8 (UniProt Q9NVH6)
inactive: [1] 0.02 | [2] -0.005 | [3] -0.047 | [4] -0.028 | [5] 0.002 | [6] 0.02 | [7] 0.004 | [8] -0.022 | [9] -0.119 | [10] 0.199 | [11] -0.079 | [12] 0.059 | [13] 0 | [14] -0.01 | [15] 0.058 | [16] -0.014 | [17] -0.114 | [18] -0.029 | [19] -0.061 | [20] 0.042

Next entries:

TMEM126B (UniProt Q8IUX1)
inactive: [1] 0.027 | [2] -0.011 | [3] 0.023 | [4] -0.029 | [5] 0.017 | [6] 0.001 | [7] 0.01 | [8] -0.018 | [9] -0.054 | [10] 0.009 | [11] -0.042 | [12] 0.032 | [14] 0.029 | [15] 0.021 | [16] 0.1 | [18] 0.011 | [19] 0.025 | [20] 0.046

TM9SF3 (UniProt Q9HD45)
inactive: [1] 0.014 | [2] 0.008 | [3] 0.017 | [4] 0.01 | [5] -0.035 | [6] 0.093 | [7] -0.123 | [8] 0.005 | [9] 0.029 | [10] 0.101 | [11] 0.018 | [12] -0.036 | [13] -0.007 | [14] -0.005 | [15] -0.071 | [16] -0.082 | [17] -0.002 | [18] 0.085 | [19] 0.001 | [20] -0.033

TMX2 (UniProt Q9Y320)
inactive: [1] 0.016 | [2] 0.022 | [3] 0.033 | [4] -0.048 | [5] -0.044 | [6] -0.148 | [7] 0.038 | [8] -0.039 | [9] -0.017 | [10] 0.014 | [11] -0.052 | [12] 0.011 | [13] 0.062 | [14] -0.005 | [15] -0.05 | [16] -0.001 | [17] -0.03 | [18] -0.038 | [19] 0.016 | [20] -0.002

TNFAIP1 (UniProt Q13829)
inactive: [1] 0.042 | [2] 0.018 | [3] -0.118 | [4] -0.036 | [5] -0.05 | [6] 0.301 | [7] 0.026 | [8] 0.015 | [9] -0.037 | [10] -0.15 | [12] 0.051 | [13] -0.051 | [14] 0.094 | [15] 0.042 | [16] -0.056 | [17] -0.095 | [18] -0.061 | [19] -0.001 | [20] 0.047

TMEM38B (UniProt Q9NVV0)
inactive: [1] -0.003 | [2] 0.03 | [3] -0.042 | [4] 0.013 | [5] 0.017 | [6] 0.059 | [7] -0.005 | [8] -0.003 | [9] 0.027 | [10] 0.008 | [11] -0.034 | [12] -0.01 | [13] 0.01 | [14] 0.016 | [15] -0.038 | [16] -0.029 | [17] 0.001 | [18] -0.229 | [19] 0 | [20] -0.047

TLK2 isoform 2 (UniProt Q86UE8)
inactive: [1] 0.035 | [2] -0.011 | [3] -0.144 | [4] -0.003 | [5] -0.077 | [6] 0.011 | [7] 0.025 | [8] -0.004 | [11] -0.003 | [12] -0.015 | [13] -0.013 | [14] 0.02 | [15] -0.072 | [16] -0.029 | [17] 0.03 | [18] -0.036 | [19] 0.099 | [20] -0.006
active: [10] 0.282

TNFRSF10B (UniProt O14763)
inactive: [1] 0.022 | [2] -0.056 | [3] -0.121 | [5] -0.075 | [6] 0.056 | [8] 0.011 | [9] 0.057 | [10] -0.061 | [11] 0.015 | [13] -0.039 | [14] -0.019 | [15] -0.042 | [16] 0.039 | [17] -0.015 | [18] 0.063 | [19] -0.012 | [20] -0.06
